In patent US8592380B2, “Aerosol foams comprising clindamycin phosphate” (Precision Dermatology, Inc., priority 2010, dated 2013):
At least one structure is not confirmed: it was looked up by name or label, or the drawing left a doubt.

Assays:
[1] = test system: streptococci, staphylococci, and anaerobic organisms including Bacterioides fragilis and Propionibacterium acnes; conditions: in vitro; cited from earlier work
[2] = Stability (hydrolysis) of clindamycin phosphate dissolved in various liquids; assay type: physicochemical; conditions: dissolved in buffer vs purified water; incubated at 20° C. for about 2 months (FIG. 2)

| SMILES | antibacterial effect [1] | rate of hydrolysis in buffer, fold lower than in purified water [2] |
| --- | --- | --- |
| CCC[C@@H]1C[C@@H](C(=O)N[C@@H]([C@H]2O[C@H](SC)[C@H](OP(=O)(O)O)[C@@H](O)[C@H]2O)[C@H](C)Cl)N(C)C1 [clindamycin phosphate] | little or no antibacterial effect | 30-60 fold |
| CCC[C@@H]1C[C@@H](C(=O)N[C@@H]([C@H]2O[C@H](SC)[C@H](O)[C@@H](O)[C@H]2O)[C@H](C)Cl)N(C)C1 [clindamycin] | potent bacteriostatic effect |  |
